Sequences of proteins named here, by UniProt entry; tags and fusion partners are left off. A change or cut given only in a name is not applied to a line headed by its entry.
UniProt Q9LHF5: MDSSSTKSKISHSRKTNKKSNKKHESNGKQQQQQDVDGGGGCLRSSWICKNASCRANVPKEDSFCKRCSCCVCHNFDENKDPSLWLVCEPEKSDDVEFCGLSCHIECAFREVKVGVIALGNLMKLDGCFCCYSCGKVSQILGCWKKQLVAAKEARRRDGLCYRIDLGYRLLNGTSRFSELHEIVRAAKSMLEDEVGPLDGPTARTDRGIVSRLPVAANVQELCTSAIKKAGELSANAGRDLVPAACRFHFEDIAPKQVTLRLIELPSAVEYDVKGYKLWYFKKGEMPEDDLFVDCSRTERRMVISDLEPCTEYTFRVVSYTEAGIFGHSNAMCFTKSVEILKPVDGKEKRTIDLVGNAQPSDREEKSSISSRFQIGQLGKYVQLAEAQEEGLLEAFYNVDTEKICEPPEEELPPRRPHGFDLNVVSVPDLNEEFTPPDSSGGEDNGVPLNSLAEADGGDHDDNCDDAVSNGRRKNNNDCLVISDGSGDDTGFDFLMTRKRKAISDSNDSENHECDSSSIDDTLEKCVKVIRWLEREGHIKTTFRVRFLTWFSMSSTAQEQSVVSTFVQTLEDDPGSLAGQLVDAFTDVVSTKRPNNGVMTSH
UniProt O22467: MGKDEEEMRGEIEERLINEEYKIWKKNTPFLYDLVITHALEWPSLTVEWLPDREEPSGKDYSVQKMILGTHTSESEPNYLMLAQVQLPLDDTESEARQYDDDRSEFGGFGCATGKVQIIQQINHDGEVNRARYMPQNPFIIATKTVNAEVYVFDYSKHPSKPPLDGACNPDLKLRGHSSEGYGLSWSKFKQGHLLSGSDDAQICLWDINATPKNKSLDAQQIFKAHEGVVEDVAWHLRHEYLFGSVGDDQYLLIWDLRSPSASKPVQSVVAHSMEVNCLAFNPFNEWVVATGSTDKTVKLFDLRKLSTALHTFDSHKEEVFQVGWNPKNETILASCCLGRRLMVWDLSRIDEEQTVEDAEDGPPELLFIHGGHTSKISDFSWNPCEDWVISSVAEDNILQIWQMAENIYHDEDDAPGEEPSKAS

According to paper PMC7615239:

Key:
GFP-VAL1 (Arabidopsis) = biological target: T1, GFP-VAL1 (Arabidopsis) (UniProt Q8W4L5); experiment: co-IP; GFP-VAL1 (wt or internal deletions) coexpressed with FLAG-dsRed-tagged VEL proteins (wt or mutant) in HEK293T; GFP-trap; anti-FLAG blot
T1 sequence: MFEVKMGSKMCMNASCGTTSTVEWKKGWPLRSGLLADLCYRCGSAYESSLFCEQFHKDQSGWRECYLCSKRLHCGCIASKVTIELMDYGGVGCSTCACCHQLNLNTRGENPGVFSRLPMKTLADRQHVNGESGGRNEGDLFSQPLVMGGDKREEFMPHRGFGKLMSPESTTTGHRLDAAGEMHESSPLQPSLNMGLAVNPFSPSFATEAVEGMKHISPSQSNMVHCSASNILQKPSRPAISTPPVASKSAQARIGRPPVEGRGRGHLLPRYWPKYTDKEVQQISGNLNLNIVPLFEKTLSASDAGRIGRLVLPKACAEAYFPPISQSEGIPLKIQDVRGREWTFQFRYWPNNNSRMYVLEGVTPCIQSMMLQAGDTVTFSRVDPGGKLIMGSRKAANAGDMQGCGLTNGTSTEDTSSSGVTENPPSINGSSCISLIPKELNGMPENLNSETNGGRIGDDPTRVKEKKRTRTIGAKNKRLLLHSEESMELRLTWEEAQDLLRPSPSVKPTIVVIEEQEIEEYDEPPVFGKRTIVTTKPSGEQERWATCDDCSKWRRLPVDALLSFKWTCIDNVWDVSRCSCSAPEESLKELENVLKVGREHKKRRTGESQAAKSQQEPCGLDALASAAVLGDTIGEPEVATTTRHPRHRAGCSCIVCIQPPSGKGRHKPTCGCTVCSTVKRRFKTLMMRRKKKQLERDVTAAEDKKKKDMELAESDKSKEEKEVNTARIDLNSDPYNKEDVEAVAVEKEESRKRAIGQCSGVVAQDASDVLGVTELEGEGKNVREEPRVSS

[1] = biological target: GFP-VRN5 ΔFN3 (Arabidopsis thaliana) (UniProt Q9LHF5); experiment: co-IP; GFP-tagged VEL protein (wt, mutant or chimera) coexpressed with all four HA-tagged PRC2 subunits (VRN2, SWN, FIE, MSI1) in HEK293T; GFP-trap 90 min at 4°C; lysis buffer 20 mM Tris pH 7.4, 200 mM NaCl, 10% glycerol, 0.2% Triton X-100; anti-HA blot
[2] = biological target: GFP-VRN5 ΔN (Arabidopsis thaliana) (UniProt Q9LHF5); experiment: as above
[3] = biological target: GFP-VRN5 ΔPHDs (Arabidopsis thaliana) (UniProt Q9LHF5); experiment: as above
[4] = biological target: GFP-VRN5 ΔVEL (Arabidopsis thaliana) (UniProt Q9LHF5); experiment: as above

Substance | binding (GFP-VAL1 (Arabidopsis)) | binding [1] | binding [2] | binding [3] | binding [4]
FLAG-dsRed-VIN3 ΔKRFK with a heterologous viral NLS (PKKKRKV) (Arabidopsis thaliana) | binds |  |  |  | 
HA-tagged MSI1 (from UniProt O22467 1-424) |  | binds | binds | binds weakly | binds

These are yes or no findings as the source states them, for the method shown. Binding seen in cells or lysates may run through a third protein. A result given as binding can be weak or reduced; the word gives no strength. For some assays here: Where a sequence is shown, tags or fusion partners need not be part of it.
